Test results as given in article PMC10942865.
Numbering of substitutions follows the chain as printed. These are yes or no findings as the source states them, for the method shown. In cells and extracts the contact can be indirect. Some results given as binding are weak or reduced against the parent protein; the word gives no strength. Where a sequence is shown, tags or fusion partners need not be part of it.

Chains of the proteins cited; added tags and fusions are not shown.
UniProt O94986: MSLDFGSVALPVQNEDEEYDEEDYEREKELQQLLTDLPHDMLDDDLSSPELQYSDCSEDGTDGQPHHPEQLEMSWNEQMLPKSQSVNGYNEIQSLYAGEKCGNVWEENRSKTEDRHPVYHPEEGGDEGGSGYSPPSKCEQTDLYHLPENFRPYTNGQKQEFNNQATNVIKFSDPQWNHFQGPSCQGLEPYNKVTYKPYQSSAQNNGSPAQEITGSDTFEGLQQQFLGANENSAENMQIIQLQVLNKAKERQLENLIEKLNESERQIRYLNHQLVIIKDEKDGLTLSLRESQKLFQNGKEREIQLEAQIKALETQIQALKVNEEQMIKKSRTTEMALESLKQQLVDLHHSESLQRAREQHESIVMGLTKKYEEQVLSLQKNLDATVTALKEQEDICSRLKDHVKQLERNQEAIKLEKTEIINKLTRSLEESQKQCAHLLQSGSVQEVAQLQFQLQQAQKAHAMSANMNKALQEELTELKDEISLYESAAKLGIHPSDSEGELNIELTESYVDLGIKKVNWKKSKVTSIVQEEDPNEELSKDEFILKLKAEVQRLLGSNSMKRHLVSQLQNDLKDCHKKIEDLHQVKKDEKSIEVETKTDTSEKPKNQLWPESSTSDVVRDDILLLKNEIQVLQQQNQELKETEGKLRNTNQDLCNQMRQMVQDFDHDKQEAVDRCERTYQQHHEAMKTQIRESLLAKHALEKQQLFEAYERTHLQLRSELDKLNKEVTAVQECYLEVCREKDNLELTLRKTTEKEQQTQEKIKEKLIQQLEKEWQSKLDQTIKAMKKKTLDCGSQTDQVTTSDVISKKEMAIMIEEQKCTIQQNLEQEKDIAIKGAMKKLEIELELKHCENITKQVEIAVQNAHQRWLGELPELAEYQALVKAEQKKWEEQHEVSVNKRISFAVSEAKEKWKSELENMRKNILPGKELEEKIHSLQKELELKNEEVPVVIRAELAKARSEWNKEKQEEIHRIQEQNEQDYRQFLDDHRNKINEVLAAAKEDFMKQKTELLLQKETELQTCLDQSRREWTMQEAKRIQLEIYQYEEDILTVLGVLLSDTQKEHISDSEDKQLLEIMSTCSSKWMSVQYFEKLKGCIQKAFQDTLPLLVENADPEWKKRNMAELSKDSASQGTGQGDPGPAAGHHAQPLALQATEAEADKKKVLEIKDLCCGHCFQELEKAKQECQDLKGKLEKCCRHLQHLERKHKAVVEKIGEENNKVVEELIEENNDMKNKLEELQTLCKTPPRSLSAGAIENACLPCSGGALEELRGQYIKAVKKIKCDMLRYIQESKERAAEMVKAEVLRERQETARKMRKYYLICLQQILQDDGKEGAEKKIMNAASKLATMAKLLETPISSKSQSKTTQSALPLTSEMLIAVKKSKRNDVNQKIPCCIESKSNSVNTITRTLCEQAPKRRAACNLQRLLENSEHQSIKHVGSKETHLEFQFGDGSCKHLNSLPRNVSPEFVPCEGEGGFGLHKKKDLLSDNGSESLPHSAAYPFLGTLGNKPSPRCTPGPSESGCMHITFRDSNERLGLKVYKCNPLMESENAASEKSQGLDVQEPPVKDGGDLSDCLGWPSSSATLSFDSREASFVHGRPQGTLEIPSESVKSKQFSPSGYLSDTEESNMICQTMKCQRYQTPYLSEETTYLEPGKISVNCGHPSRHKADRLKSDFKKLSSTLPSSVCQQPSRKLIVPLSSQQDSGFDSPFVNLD
UniProt Q9Y4B6: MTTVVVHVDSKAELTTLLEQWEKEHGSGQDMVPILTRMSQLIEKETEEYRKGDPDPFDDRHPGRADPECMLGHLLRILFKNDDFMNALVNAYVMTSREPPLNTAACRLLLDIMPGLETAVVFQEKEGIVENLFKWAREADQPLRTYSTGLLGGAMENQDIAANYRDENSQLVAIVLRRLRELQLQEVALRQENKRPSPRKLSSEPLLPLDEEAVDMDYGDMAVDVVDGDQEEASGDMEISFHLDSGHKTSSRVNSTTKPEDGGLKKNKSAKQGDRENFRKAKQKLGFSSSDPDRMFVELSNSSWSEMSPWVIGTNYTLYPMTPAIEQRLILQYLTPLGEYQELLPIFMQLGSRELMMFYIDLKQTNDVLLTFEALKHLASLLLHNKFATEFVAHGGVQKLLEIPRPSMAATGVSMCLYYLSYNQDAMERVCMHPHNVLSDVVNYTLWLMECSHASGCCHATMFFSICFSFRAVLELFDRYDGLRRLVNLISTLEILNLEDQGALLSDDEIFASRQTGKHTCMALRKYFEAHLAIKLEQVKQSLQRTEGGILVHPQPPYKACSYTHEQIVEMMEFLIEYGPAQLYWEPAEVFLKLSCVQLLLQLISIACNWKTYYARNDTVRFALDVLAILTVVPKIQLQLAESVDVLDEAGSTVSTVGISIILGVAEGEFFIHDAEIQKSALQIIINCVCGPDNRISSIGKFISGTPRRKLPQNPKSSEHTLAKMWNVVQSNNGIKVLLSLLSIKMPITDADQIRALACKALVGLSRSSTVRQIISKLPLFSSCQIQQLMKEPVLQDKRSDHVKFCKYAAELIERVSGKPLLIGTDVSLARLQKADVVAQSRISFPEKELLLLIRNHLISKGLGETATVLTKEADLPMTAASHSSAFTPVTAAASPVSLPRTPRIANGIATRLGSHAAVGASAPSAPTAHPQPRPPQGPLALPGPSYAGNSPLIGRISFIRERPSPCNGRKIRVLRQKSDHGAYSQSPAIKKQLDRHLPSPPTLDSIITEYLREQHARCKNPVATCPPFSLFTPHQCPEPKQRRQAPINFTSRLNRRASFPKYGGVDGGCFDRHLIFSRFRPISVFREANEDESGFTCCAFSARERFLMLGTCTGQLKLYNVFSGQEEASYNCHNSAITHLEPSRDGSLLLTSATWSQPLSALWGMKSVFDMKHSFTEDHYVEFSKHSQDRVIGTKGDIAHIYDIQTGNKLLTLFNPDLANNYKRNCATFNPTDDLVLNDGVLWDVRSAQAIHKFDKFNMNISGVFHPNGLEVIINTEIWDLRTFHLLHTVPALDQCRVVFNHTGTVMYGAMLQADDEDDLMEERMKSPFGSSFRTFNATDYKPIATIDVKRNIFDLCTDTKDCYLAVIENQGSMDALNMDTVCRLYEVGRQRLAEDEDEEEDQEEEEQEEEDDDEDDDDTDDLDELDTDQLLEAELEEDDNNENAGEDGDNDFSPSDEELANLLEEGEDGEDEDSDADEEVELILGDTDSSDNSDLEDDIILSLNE
UniProt O95071: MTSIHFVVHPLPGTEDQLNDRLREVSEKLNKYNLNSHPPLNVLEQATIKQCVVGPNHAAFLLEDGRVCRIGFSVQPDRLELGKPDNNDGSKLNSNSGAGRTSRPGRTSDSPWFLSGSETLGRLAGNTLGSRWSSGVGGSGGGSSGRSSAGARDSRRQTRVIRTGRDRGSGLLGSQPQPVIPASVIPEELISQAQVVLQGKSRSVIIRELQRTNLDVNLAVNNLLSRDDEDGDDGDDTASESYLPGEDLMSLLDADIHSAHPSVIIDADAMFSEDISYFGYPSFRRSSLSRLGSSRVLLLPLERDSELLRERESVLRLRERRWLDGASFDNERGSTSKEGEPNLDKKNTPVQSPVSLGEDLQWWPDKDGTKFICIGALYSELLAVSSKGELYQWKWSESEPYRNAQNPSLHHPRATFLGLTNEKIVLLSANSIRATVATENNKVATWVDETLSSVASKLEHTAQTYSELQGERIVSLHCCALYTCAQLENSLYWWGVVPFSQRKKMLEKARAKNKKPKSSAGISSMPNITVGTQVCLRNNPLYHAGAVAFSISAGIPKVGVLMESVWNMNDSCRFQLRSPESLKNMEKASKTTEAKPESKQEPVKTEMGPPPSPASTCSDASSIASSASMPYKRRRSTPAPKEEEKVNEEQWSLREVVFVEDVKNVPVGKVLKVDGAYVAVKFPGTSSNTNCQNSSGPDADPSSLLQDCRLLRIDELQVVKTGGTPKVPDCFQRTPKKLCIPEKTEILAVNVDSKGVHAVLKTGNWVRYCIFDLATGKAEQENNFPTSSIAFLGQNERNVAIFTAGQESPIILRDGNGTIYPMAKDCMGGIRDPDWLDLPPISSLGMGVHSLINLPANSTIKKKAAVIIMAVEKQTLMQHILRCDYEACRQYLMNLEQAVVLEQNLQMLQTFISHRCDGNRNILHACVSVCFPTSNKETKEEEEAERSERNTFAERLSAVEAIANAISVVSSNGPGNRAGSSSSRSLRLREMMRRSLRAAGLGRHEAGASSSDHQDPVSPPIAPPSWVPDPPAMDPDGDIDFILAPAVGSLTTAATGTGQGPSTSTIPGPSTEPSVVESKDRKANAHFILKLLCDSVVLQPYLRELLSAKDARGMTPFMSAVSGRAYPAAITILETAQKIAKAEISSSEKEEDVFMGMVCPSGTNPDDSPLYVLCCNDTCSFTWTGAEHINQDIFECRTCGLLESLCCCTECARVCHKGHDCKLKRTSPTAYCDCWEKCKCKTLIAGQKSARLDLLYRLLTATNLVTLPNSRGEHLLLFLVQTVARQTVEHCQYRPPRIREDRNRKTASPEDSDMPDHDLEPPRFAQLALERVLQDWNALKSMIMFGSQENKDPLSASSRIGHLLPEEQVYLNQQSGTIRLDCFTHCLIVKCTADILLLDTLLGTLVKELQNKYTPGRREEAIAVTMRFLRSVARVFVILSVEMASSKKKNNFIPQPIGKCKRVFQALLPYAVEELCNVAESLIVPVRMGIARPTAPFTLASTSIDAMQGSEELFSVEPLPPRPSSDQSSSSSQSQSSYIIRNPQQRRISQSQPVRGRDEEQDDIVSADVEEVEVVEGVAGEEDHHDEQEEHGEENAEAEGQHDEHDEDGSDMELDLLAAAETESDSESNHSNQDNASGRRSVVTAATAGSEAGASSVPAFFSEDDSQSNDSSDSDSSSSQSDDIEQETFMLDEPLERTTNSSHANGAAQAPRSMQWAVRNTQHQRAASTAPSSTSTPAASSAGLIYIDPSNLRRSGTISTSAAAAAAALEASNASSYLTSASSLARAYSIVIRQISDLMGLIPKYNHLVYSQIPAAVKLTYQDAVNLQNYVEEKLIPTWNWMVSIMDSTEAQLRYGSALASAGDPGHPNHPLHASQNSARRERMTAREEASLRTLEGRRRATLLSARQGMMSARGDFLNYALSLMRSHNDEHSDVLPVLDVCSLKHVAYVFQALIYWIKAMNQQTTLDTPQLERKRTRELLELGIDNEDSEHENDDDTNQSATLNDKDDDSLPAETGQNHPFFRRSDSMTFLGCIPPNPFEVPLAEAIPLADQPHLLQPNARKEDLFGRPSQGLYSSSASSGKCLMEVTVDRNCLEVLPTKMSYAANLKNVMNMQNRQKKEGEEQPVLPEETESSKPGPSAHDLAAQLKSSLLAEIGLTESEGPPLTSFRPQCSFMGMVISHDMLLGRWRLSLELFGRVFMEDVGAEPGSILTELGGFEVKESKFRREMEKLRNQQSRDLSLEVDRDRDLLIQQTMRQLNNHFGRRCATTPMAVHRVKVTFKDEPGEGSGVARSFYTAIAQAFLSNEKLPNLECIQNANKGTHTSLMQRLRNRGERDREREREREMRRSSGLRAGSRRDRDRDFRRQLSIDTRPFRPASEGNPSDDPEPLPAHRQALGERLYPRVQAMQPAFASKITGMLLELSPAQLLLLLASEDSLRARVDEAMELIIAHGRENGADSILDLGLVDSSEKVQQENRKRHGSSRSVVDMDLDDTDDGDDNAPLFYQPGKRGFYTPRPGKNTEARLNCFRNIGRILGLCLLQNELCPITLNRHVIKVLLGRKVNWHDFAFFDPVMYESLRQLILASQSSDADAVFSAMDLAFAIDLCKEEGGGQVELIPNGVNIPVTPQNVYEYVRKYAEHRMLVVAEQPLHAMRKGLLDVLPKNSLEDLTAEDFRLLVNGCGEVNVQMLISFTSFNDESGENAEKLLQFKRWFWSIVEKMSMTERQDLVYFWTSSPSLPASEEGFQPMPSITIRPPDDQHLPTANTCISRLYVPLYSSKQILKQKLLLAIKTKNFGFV

Key:
[1] = target: T1, Flag-PLK4 wt (polo-like kinase 4), full-length (human) (UniProt O00444); assay: co-IP; Flag-tagged protein overexpressed in HEK293T; 3-6 mg cell extract in NP-40 buffer with α-Flag M2 beads, 3 h or overnight at 4°C, 3x Flag peptide elution, Western blot; also cells synchronized in G1/S or G2, siRNA against PLK4, or λ-phosphatase treatment of the immunoprecipitate
T1 sequence: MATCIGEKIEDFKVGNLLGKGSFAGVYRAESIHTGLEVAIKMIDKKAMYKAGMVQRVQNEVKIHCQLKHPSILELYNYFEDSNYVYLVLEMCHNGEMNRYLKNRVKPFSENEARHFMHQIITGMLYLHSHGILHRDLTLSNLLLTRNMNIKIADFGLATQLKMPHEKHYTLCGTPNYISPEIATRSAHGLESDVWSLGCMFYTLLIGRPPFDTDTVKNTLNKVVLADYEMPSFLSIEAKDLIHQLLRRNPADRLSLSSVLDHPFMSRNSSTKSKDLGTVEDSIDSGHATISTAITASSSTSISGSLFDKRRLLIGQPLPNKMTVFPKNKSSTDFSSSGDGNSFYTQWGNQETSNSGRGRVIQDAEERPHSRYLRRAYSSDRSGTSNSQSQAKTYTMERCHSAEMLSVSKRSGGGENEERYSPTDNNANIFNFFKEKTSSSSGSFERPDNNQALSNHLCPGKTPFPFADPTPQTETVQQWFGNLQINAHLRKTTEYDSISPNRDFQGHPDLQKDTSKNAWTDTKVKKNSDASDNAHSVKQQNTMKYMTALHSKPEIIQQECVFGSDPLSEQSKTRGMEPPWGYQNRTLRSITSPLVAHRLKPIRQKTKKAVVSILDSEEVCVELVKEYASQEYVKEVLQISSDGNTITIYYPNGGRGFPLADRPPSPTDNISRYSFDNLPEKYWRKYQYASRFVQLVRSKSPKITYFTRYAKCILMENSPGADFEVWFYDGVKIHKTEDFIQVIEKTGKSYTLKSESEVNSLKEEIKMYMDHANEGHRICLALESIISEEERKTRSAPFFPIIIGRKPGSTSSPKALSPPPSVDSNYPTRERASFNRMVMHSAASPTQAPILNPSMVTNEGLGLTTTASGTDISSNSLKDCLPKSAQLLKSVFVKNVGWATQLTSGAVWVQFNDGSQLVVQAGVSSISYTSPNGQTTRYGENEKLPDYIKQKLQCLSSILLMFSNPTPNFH

[2] = target: T1, Flag-PLK4 wt (polo-like kinase 4), full-length (human); assay: co-IP; competition: Flag-PLK4 overexpressed in HEK293T together with increasing amounts of Myc-DCAF1 plasmid DNA (+ to ++++) for 48 h; IP against the Flag tag, Western blot
[3] = target: T1, Flag-PLK4 wt (polo-like kinase 4), full-length (human); assay: co-IP; sequential: Flag-PLK4 and HA-DCAF1 overexpressed in HEK293T; IP against the Flag tag, Flag peptide elution, then IP against the HA tag from the eluates, Western blot
[4] = target: T2, Flag-PLK4 K41R (kinase-dead) (human) (UniProt O00444); assay: co-IP; Flag-tagged protein overexpressed in HEK293T; 3-6 mg cell extract in NP-40 buffer with α-Flag M2 beads, 3 h or overnight at 4°C, 3x Flag peptide elution, Western blot; also cells synchronized in G1/S or G2, siRNA against PLK4, or λ-phosphatase treatment of the immunoprecipitate
T2 sequence: T1 sequence with K41R

[5] = target: T3, Flag-PLK4-AA (S285A + T289A), β-TrCP-binding mutant (human) (UniProt O00444); assay: as above
T3 sequence: T1 sequence with S285A, T289A

[6] = target: T1, Flag-PLK4 wt (polo-like kinase 4), full-length (human); assay: co-IP; Flag-PLK4 overexpressed in HEK293T cells arrested in M phase by single thymidine and nocodazole; α-Flag M2 beads, Western blot

Row | Substance | binding [1] | binding [2] | binding [3] | other results
1 | CEP152, endogenous (from UniProt O94986 1-1710) | binds | binds |  | 
2 | Myc-DCAF1 (from UniProt Q9Y4B6 1-1507) |  | binds |  | 
3 | UBR5/EDD, endogenous (from UniProt O95071 1-2799) |  |  | no binding | 
4 | HA-DCAF1 (from UniProt Q9Y4B6 1-1507) |  |  | binds | 
5 | DCAF1 (VprBP), endogenous (from UniProt Q9Y4B6 1-1507) | binds |  |  | binding [4]: binds; binding [5]: binds; binding [6]: binds weakly
6 | DDB1 (DNA damage-binding protein 1), endogenous (from UniProt Q16531 1-1140) | binds |  | binds | 
